Data taken from patent US20220372111A1.
Results are given in words; binding and its absence hold for the method and conditions named. Some results given as binding are weak or reduced against the parent protein; the word gives no strength.

By UniProt entry, the sequences of proteins in these tests, tags left out. Residues count along the entry.
UniProt P08246, residues 30-247: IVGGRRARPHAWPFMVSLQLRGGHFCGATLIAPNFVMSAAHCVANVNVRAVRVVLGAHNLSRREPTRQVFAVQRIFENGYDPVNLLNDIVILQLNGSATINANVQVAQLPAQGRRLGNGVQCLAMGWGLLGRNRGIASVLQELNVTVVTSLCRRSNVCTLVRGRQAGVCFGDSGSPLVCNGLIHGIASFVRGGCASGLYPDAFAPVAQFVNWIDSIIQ

Assays:
[1] = target: neutrophil elastase (purified HNE) (human) (UniProt P08246); assay: inhibition of HNE activity, ratio [MDI-1005]/[HNE] 0 to 20, buffer and DNA NETs [panel MDI-1005]
[2] = target: neutrophil elastase (purified HNE) (human) (UniProt P08246); assay: inhibition of HNE activity, ratio [MDI-1009]/[HNE] 0 to 20, buffer and DNA NETs [panel MDI-1009]
[3] = target: neutrophil elastase (purified HNE) (human) (UniProt P08246); assay: inhibition of HNE activity, ratio [MDI-1007]/[HNE] 0 to 20, buffer and DNA NETs [panel MDI-1007]
[4] = target: neutrophil elastase (purified HNE) (human) (UniProt P08246); assay: inhibition of HNE activity, ratio [MDI-1010]/[HNE] 0 to 20, buffer and DNA NETs [panel MDI-1010]
[5] = target: neutrophil elastase (purified HNE) (human) (UniProt P08246); assay: inhibition of HNE activity, ratio [MDI-1008]/[HNE] 0 to 20, buffer and DNA NETs [panel MDI-1008]
[6] = target: neutrophil elastase (purified HNE) (human) (UniProt P08246); assay: inhibition of HNE activity, ratio [MDI-1006]/[HNE] 0 to 20, buffer and DNA NETs [panel MDI-1006]

MDI-1005 (from UniProt P05121 24-402)
binding [1]: binds

MDI-1009 (from UniProt P05121 24-402)
binding [2]: binds

MDI-1007 (from UniProt P05121 24-402)
binding [3]: binds

MDI-1010 (from UniProt P05121 24-402)
binding [4]: binds

MDI-1008 (from UniProt P05121 24-402)
binding [5]: binds

MDI-1006 (from UniProt P05121 24-402)
binding [6]: binds
